# Assay results published in publication PMC7819943, “Rice protein-binding microarrays: a tool to detect cis-acting elements near promoter regions in rice”.
# The chains behind the UniProt entries cited, without tags or fusion partners.
# UniProt Q0JBA9, entry or part of it: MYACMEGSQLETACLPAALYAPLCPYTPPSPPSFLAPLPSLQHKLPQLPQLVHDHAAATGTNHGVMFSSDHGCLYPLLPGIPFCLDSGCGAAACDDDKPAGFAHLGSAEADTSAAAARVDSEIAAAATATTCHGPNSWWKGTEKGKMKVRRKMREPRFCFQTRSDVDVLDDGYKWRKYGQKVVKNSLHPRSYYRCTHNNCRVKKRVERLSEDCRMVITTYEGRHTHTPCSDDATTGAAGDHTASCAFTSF
# The other results are listed elsewhere or left out.
# Target: OsWRKY34 (Oryza sativa, UniProt Q0JBA9 1-250)
# Assay: protein-binding microarray (RPBM); PBS, 2% BSA, 51.3 ng/ul salmon testes DNA, 50 uM zinc acetate, 200 nM TF, 25 C, 1 h; high values mean tight binding
# Details: protein: recombinant; tags: N-terminal polyhistidine and DsRed monomer fusion (pET32a); label: CyDye5-dUTP incorporated in the synthesized complementary strand; 3' TTTTT single-stranded linker to array surface; dsDNA, one strand shown
# Method in brief: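 The binding signal for each feature is its fluorescence intensity in arbitrary units. An Axon 4000B scanner was used to read a custom Agilent array that had been made double-stranded with Cy5-dUTP primer extension, blocked with 2% BSA, incubated at 25 °C for 1 h with 200 nM protein in PBS, 2% BSA, salmon testes DNA and 50 µM zinc acetate, and washed. The protein was an N-terminal polyhistidine–DsRed transcription factor fusion from E. coli BL21-CodonPlus, purified on Ni–NTA.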
row,Sequence,binding signal
1,GCCGTCTCGCGGATCATCGTCCCCTACTCCGACCAGCCATCGGAGTCACCTAGTGCAG,9460 fluorescence intensity (a.u.)
2,GTTAATGCTGGACTCTTTCGTCTTTTTAATCCATATTAATCGGAGTCACCTAGTGCAG,9310 fluorescence intensity (a.u.)
3,TCCTGACCCACCGCGCGCCCCACCGACCCGGCCTTCCTCGCGGAGTCACCTAGTGCAG,10400 fluorescence intensity (a.u.)
4,GAATGGATTGGTGCTACCTCTCATGGCCTTTTCAACTTTCCGGAGTCACCTAGTGCAG,9710 fluorescence intensity (a.u.)
5,TCCTCCTTTTTAACTTTGGGCCGAATTCTTCTTCTCTCTCCGGAGTCACCTAGTGCAG,8950 fluorescence intensity (a.u.)
6,TATCTGCACACAGATCATCACCATACTTGCATCTGTCGTTCGGAGTCACCTAGTGCAG,8860 fluorescence intensity (a.u.)
7,AAGTTAACTTTGGATCCAAACTTCTAACTTTTTCTATCATCGGAGTCACCTAGTGCAG,8250 fluorescence intensity (a.u.)
8,TCCCTAGCCTAGCCCAATTCAGCATAATACCTCCCGTAGTCGGAGTCACCTAGTGCAG,8860 fluorescence intensity (a.u.)
9,TCCTTCTCGTCTCATCCCGTCGACCCGCCGCCGCCTCAATCGGAGTCACCTAGTGCAG,11800 fluorescence intensity (a.u.)
10,ACTCTACTGCTGTCCCGAGCCTGTGGATCCAAATCCAACGCGGAGTCACCTAGTGCAG,8460 fluorescence intensity (a.u.)
11,TTAGGCCCATTTATAATTTGCTAGTTCGCTGCCAGCCACCCGGAGTCACCTAGTGCAG,8490 fluorescence intensity (a.u.)
12,TAGCTTACCAGTTGTAGTACGTTCCACACTTCCAGCGATGCGGAGTCACCTAGTGCAG,9730 fluorescence intensity (a.u.)
13,AGATGTGAAGAGATCCTCATAGAACTTTCCGGCCAATTTTCGGAGTCACCTAGTGCAG,8090 fluorescence intensity (a.u.)
14,ACATACTCCCTACTTCCCTAAATGTTTAATGCCGTTGATTCGGAGTCACCTAGTGCAG,8460 fluorescence intensity (a.u.)
15,TATTTATAGTGTCTGAGTATAGAACTTCGCTTCTCCTTTCCGGAGTCACCTAGTGCAG,8190 fluorescence intensity (a.u.)
16,GTAAATTGACACGATAACTGATAGATAGTACTCTTTTTTACGGAGTCACCTAGTGCAG,8160 fluorescence intensity (a.u.)
17,ACACGTTTTGGATTCGAATTCAGGCCTCTTGACAGCATCACGGAGTCACCTAGTGCAG,9450 fluorescence intensity (a.u.)
18,ATATATATATATATATATATGGTTTTGCGGTTCGAGCACGCGGAGTCACCTAGTGCAG,9780 fluorescence intensity (a.u.)
19,AACAGCTTCCTGTCGATGGTTGGTAAATTGTAAAATGATTCGGAGTCACCTAGTGCAG,8820 fluorescence intensity (a.u.)
20,TGATAGTGGTGGGGTGGTATTGGTCCTAGCTTTGTACTCCCGGAGTCACCTAGTGCAG,18700 fluorescence intensity (a.u.)
21,AAGATAGATGCCACTAATTTTTACACTGTATTTTGTAACTCGGAGTCACCTAGTGCAG,8290 fluorescence intensity (a.u.)

row,Sequence,binding signal
1,TATTATGAAATAAGTTGCTATTTTGTGGTTGAGGGGTACGCGGAGTCACCTAGTGCAG,8480 fluorescence intensity (a.u.)
2,TTGTTTGGTTTTAAAATATTGCTATGTTTTTCTATGAATTCGGAGTCACCTAGTGCAG,9250 fluorescence intensity (a.u.)
3,ATTTTCTGACTAAGTACCACATCAATGCCATGTTAGCTGACGGAGTCACCTAGTGCAG,8890 fluorescence intensity (a.u.)
4,TCCTCCTCTCCGCTTCTCCATTCGCCGGCGCCGCCCGAACCGGAGTCACCTAGTGCAG,10200 fluorescence intensity (a.u.)
5,TCCATTCCACGACAACTCCAGCCATGTACATGTATATATACGGAGTCACCTAGTGCAG,9140 fluorescence intensity (a.u.)
6,TTCACATCTCGTTTTATGTCTTCTTTGTATTTGCATGAAGCGGAGTCACCTAGTGCAG,9100 fluorescence intensity (a.u.)
7,CGCCGCGCTTCCGCCTCTCCACCCGCCGCCGCCTCCCTCGCGGAGTCACCTAGTGCAG,9590 fluorescence intensity (a.u.)
8,TGGCCGGGAGGGTTGGCCCTTGTGGTTTCGGGGTTTGGTTCGGAGTCACCTAGTGCAG,15900 fluorescence intensity (a.u.)
9,GATAACAGCACCAATCTTAACATTGCAGCTTATTACACACCGGAGTCACCTAGTGCAG,9500 fluorescence intensity (a.u.)
10,TATAAGTCTTTCTATCATTGTCCACATTCATATAGATATTCGGAGTCACCTAGTGCAG,9730 fluorescence intensity (a.u.)
11,CCGCACCACCGCTCCCGCCCGTCTCACCGGCGACGCAGCCCGGAGTCACCTAGTGCAG,8650 fluorescence intensity (a.u.)
12,GTATTTTTCTCCATACTGCAAAACGCACCGTGGACGCGACCGGAGTCACCTAGTGCAG,8100 fluorescence intensity (a.u.)
13,GGATAGTGTGTTGCAAGACCGATGTTTGGTCCATGTAGCCCGGAGTCACCTAGTGCAG,9140 fluorescence intensity (a.u.)
14,AACCACAACCTGCCACGTACTCTACTCTACCCGCCGCGCGCGGAGTCACCTAGTGCAG,11800 fluorescence intensity (a.u.)
15,TTTGACTGTTTTCTGTTCTTTTGCAAAATGTGGAGCCATGCGGAGTCACCTAGTGCAG,8520 fluorescence intensity (a.u.)
16,TCTGCGCGCCGTACCTCTGCACGTACGTACGCCGGCGCGCCGGAGTCACCTAGTGCAG,8300 fluorescence intensity (a.u.)
17,TACTCTAATAGCTATCTACTGTCACTCGGGAGTTTATTCGCGGAGTCACCTAGTGCAG,8180 fluorescence intensity (a.u.)
18,GCCGGCGGCAGGGTGGGGCGGGGACGCCTGCCGGCGTCGGCGGAGTCACCTAGTGCAG,9860 fluorescence intensity (a.u.)
19,CACTGCAATGACTAGATTACGTGCTCTTTCGCAACCCATACGGAGTCACCTAGTGCAG,9520 fluorescence intensity (a.u.)
20,ACATATAATTGCCACGTCAGCGCCACATCAATGCCACGTGCGGAGTCACCTAGTGCAG,8840 fluorescence intensity (a.u.)
21,GCCGATCTCCATCCCGCGAGCGAGCAGGGGCGCCCGGCGCCGGAGTCACCTAGTGCAG,8430 fluorescence intensity (a.u.)

# Reprinted at random: 4 entries already listed, in no set order.
row,Sequence,binding signal
19,AACAGCTTCCTGTCGATGGTTGGTAAATTGTAAAATGATTCGGAGTCACCTAGTGCAG,8820 fluorescence intensity (a.u.)
18,ATATATATATATATATATATGGTTTTGCGGTTCGAGCACGCGGAGTCACCTAGTGCAG,9780 fluorescence intensity (a.u.)
7,AAGTTAACTTTGGATCCAAACTTCTAACTTTTTCTATCATCGGAGTCACCTAGTGCAG,8250 fluorescence intensity (a.u.)
11,TTAGGCCCATTTATAATTTGCTAGTTCGCTGCCAGCCACCCGGAGTCACCTAGTGCAG,8490 fluorescence intensity (a.u.)

# More entries follow.

row,Sequence,binding signal
1,CTCATTGCATCTAGCTAGCTTTTCTGTCTCCTGAATTTCTCGGAGTCACCTAGTGCAG,8910 fluorescence intensity (a.u.)
2,GGTACAGAAATAGCCAGTAGTATTATCATTCACACTTCCACGGAGTCACCTAGTGCAG,8510 fluorescence intensity (a.u.)
3,CTCTCTCTCGGCGAAATGCAGCACCCAAAATTACGGCCCACGGAGTCACCTAGTGCAG,9870 fluorescence intensity (a.u.)
4,CCTTCCTTTTTGTTGACTCACCTACTCTGTTAATCTCTACCGGAGTCACCTAGTGCAG,9630 fluorescence intensity (a.u.)
5,ACACATGTAATATCACTTAGCTTTTTCATGAATGGACAATCGGAGTCACCTAGTGCAG,8870 fluorescence intensity (a.u.)
6,TCCCTTTCGCTTTTCCAGCCTCATCAGTTTCTTCACATTTCGGAGTCACCTAGTGCAG,8650 fluorescence intensity (a.u.)
7,ATTTCACTTGTGCCTGTTTTGATGAGTTCGTCTATATCTTCGGAGTCACCTAGTGCAG,8350 fluorescence intensity (a.u.)
8,TCCGCTTCCGCTCCACTCTTCTCCTCTCCCGCGCGCCACGCGGAGTCACCTAGTGCAG,9630 fluorescence intensity (a.u.)
9,CCGTTTCACAATGTAAGTCATTCTAGCATTTCTCATATTTCGGAGTCACCTAGTGCAG,9930 fluorescence intensity (a.u.)
10,AGGCTTGTTTGGTTTACTGTCATGTTAAAATGTTGACAATCGGAGTCACCTAGTGCAG,8600 fluorescence intensity (a.u.)
11,TTTCAGTGTATTACAAGCAGCTTTCAAGTTTCAACACATTCGGAGTCACCTAGTGCAG,8170 fluorescence intensity (a.u.)
12,ACGGGTGATCGCTAACTTGCCGTCTTGCCGGATTGCCCGCCGGAGTCACCTAGTGCAG,8350 fluorescence intensity (a.u.)
13,GGTGCCGTGAACTCACTTGGTCTGGTTTTTCTTATCCTCTCGGAGTCACCTAGTGCAG,10400 fluorescence intensity (a.u.)
14,ATGTGTGATGCCCAGTTTGCTCTGCTCCTGTTAAAATATACGGAGTCACCTAGTGCAG,9700 fluorescence intensity (a.u.)
15,CATCCGCCCGTCCTTATCCATCCGCCTTATCCATCCATCCCGGAGTCACCTAGTGCAG,9000 fluorescence intensity (a.u.)
16,GCCGTCGCTCATCGAGCTCGACATCTCCGTACCGCCACTCCGGAGTCACCTAGTGCAG,9450 fluorescence intensity (a.u.)
17,GCCTCATCCCAATCCCGGTTGGTGCCACCCAAACCAATCTCGGAGTCACCTAGTGCAG,8830 fluorescence intensity (a.u.)
18,GCATTTTTCTGTCTTCATCCGGTCCGCACCAACTACACCACGGAGTCACCTAGTGCAG,13700 fluorescence intensity (a.u.)
19,GCCTTCACAAAATCACAAGCGAATGATTTTACTGCCTTGCCGGAGTCACCTAGTGCAG,9190 fluorescence intensity (a.u.)
20,GTGGGTGTTGATTTGCGGGTGTGTCCCCTCTCCTCTTAGGCGGAGTCACCTAGTGCAG,9310 fluorescence intensity (a.u.)
21,ACTTATTCCTAGGCCCAAACACCCGGCTCACATCACATCGCGGAGTCACCTAGTGCAG,10400 fluorescence intensity (a.u.)

# Given bar-delimited: entries from further up
row | Sequence | binding signal
12 | GTATTTTTCTCCATACTGCAAAACGCACCGTGGACGCGACCGGAGTCACCTAGTGCAG | 8100 fluorescence intensity (a.u.)
13 | GGATAGTGTGTTGCAAGACCGATGTTTGGTCCATGTAGCCCGGAGTCACCTAGTGCAG | 9140 fluorescence intensity (a.u.)
14 | AACCACAACCTGCCACGTACTCTACTCTACCCGCCGCGCGCGGAGTCACCTAGTGCAG | 11800 fluorescence intensity (a.u.)

# Additional records follow.

row,Sequence,binding signal
1,GACCTTATGTTAACTTCTTCTAGAGATTGGACCTTATGTTCGGAGTCACCTAGTGCAG,10500 fluorescence intensity (a.u.)
2,GATACCATCTCATATAGTGTACTTTCTCCATCCTATAAAACGGAGTCACCTAGTGCAG,8410 fluorescence intensity (a.u.)
3,CGCCATCGCCAACGCCAACGCCTCCGCGGACTCCATTGTCCGGAGTCACCTAGTGCAG,8540 fluorescence intensity (a.u.)
4,CTACCTTGGGCTATGCCGTCGCTCTTTCTCCAAGGCGCGCCGGAGTCACCTAGTGCAG,8610 fluorescence intensity (a.u.)
5,TTTCTTTCCTGTTTTAGGAGGGTTTTCCACGTTAAATCTTCGGAGTCACCTAGTGCAG,8290 fluorescence intensity (a.u.)
6,TACATCATCCCGTGCCATGTCCATATAAACGCTTCACCCACGGAGTCACCTAGTGCAG,8360 fluorescence intensity (a.u.)
7,TCATCATTCCAATATGCTATGAAGTTGTGATAATTTTTATCGGAGTCACCTAGTGCAG,8630 fluorescence intensity (a.u.)
8,ATCTTCTGTTTCATATTTAACCTTTATCTTGCTTCACAAACGGAGTCACCTAGTGCAG,10800 fluorescence intensity (a.u.)
9,TTGATGGGTTTTGGGTTTTTGTGCTGCTCCTTTTTCGTAACGGAGTCACCTAGTGCAG,19800 fluorescence intensity (a.u.)
10,TTACCGATGCGACCTGTCCCTGTCACTCCCGCCTCGGTAACGGAGTCACCTAGTGCAG,9060 fluorescence intensity (a.u.)
11,AATAGACAGCATTTTCGGCTTCCAACCGGCTACCTTCTTTCGGAGTCACCTAGTGCAG,8160 fluorescence intensity (a.u.)
12,TCCATTTCATATTACAAGTCGTTTTGACTTTTTTTTCTAACGGAGTCACCTAGTGCAG,10700 fluorescence intensity (a.u.)
13,TAATCCGCTCAATAATGATCTGTTTCAAACTGCGCCACCCCGGAGTCACCTAGTGCAG,9040 fluorescence intensity (a.u.)
14,GTCGACGTGTTTCAAATTCCTATGCTTGAAAGCACTTTCCCGGAGTCACCTAGTGCAG,9300 fluorescence intensity (a.u.)
15,GTTTGGATGTTTTCTTGTTCCTTTGTGTGCGGTGGAATAACGGAGTCACCTAGTGCAG,12000 fluorescence intensity (a.u.)
16,CCTCTTCACACGACGCTCCCATTTTTATTTATATATATCACGGAGTCACCTAGTGCAG,11100 fluorescence intensity (a.u.)
17,ACACAATTTTCATTACATTTGTTCTCATCTTCAGAAATTACGGAGTCACCTAGTGCAG,10400 fluorescence intensity (a.u.)
18,AGTGTCGTTGACTAACTCGATGGTCACCAAGCAGATGGCACGGAGTCACCTAGTGCAG,12800 fluorescence intensity (a.u.)
19,GAAGCAACAGTTCTCTCGCCTCCGGTTCTCCATTGTCCATCGGAGTCACCTAGTGCAG,8750 fluorescence intensity (a.u.)
20,ACCCTTACGAACGTACGCTTGCACTTTACCTCTATGAGCACGGAGTCACCTAGTGCAG,10500 fluorescence intensity (a.u.)
21,TACCGTATTGTGTTCTTTAATGTTTTTATTTTTTATTTTCCGGAGTCACCTAGTGCAG,10300 fluorescence intensity (a.u.)
